# Data: PubChem BioAssay (EPA / NIEHS)
# Amino acid sequences for entries named in this document (tags omitted). A change or cut given only in a name is not applied to a line headed by its entry.
# UniProt P13631, whole entry, looked up: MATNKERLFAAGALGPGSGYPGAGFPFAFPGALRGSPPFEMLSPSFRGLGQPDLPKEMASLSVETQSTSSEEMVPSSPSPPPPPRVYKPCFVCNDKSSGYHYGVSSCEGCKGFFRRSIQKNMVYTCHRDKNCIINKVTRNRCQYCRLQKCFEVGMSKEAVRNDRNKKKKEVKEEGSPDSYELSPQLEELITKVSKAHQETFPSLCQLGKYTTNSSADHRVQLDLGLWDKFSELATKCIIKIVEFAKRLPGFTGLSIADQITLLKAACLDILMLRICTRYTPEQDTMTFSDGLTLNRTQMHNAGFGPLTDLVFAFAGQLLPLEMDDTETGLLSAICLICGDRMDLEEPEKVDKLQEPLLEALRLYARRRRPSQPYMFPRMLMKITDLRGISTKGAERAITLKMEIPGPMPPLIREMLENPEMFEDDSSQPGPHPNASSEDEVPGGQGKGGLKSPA
# UniProt Q92753: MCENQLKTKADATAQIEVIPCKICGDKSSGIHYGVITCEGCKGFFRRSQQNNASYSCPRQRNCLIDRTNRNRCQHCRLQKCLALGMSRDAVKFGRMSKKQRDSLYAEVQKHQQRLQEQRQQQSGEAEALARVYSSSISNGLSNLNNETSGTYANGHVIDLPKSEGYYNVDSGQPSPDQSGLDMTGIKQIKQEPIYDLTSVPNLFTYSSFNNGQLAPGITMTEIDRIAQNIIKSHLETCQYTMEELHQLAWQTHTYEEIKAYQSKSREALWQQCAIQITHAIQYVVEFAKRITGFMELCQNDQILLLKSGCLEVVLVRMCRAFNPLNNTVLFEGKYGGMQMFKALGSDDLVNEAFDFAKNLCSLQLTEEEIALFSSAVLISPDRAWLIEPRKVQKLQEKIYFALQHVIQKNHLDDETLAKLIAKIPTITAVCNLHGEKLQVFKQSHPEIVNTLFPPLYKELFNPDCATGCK
# UniProt P51449: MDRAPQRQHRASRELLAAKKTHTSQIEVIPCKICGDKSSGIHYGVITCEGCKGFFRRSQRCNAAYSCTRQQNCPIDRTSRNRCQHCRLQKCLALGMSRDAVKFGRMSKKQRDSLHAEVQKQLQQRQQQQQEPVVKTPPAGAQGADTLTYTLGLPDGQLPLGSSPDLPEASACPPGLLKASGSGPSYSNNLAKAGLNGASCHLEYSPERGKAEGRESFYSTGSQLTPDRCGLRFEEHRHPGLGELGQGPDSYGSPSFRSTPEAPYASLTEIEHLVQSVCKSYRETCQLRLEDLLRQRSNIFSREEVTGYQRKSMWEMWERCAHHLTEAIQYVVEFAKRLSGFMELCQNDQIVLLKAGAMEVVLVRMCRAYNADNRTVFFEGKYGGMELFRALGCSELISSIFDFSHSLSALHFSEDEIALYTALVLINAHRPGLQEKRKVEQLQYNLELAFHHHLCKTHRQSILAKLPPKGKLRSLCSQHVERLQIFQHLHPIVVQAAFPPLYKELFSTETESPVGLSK
# UniProt P19793: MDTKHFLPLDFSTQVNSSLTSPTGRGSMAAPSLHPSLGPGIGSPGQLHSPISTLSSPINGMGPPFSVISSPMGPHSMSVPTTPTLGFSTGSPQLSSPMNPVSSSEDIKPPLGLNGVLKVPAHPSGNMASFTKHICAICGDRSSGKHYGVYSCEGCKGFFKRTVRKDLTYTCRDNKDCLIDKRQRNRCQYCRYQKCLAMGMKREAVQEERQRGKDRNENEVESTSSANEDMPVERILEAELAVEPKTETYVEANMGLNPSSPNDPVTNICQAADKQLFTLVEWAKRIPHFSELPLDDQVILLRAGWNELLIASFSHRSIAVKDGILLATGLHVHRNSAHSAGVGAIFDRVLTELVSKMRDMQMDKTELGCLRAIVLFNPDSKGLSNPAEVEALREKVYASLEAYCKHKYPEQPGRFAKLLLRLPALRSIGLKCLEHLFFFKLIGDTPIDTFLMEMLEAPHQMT
# UniProt P28702: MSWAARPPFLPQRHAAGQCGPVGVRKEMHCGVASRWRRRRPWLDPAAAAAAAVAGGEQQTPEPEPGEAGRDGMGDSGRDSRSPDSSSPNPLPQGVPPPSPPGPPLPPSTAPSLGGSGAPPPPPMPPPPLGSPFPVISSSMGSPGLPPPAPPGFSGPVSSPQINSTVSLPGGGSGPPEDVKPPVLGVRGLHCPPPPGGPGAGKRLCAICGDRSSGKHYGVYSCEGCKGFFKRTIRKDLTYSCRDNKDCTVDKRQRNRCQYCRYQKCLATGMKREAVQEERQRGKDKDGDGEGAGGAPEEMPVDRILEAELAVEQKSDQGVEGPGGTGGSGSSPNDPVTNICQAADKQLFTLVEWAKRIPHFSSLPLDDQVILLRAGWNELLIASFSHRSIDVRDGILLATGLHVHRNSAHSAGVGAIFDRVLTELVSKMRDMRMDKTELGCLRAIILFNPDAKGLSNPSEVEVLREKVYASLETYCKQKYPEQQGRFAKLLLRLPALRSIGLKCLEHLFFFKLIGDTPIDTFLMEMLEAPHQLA
# UniProt P10827: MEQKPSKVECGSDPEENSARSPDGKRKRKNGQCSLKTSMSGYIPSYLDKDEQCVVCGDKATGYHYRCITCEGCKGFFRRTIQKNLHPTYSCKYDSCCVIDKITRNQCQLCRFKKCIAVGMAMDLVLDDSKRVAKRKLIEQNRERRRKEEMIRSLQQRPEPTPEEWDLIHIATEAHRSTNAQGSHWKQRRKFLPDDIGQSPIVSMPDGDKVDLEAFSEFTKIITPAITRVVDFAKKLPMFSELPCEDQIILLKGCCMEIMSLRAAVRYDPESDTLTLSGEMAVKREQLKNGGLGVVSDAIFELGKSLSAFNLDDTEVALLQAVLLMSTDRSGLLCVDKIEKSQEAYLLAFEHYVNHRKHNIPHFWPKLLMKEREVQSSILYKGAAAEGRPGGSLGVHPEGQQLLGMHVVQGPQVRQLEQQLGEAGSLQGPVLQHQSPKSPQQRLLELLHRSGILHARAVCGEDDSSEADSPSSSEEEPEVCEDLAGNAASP
# UniProt P11473: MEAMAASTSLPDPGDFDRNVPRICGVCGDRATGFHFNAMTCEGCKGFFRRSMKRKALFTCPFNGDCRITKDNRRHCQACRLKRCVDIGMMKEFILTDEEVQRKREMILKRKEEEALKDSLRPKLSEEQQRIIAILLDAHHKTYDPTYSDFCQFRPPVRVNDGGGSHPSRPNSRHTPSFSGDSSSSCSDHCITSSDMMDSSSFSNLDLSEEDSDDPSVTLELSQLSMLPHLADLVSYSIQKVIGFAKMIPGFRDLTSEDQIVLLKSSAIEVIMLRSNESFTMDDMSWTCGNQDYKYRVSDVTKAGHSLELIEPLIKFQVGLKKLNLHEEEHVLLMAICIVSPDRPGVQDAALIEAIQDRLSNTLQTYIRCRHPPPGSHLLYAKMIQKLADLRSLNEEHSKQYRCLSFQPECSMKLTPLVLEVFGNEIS
# Inconclusive means that the source gave no clear call. Such entries were picked first, then a sample of the others. Potencies of inconclusive entries are doubtful fits and often do not repeat. Calls of active or inactive are those of the source. Rule for the calls: active = hit-call score of the fitted dose curve at least 0.9, where 1 is the maximum; inconclusive = response in the unintended direction; inactive = score below 0.9.
# What was measured:
# [1] = target: human Retinoic Acid Receptor gamma (RARg), RARG (gene 5916) (UniProt P13631); assay: ATG_RARg_TRANS: Attagene TRANS-FACTORIAL HepG2 Assay for human Retinoic Acid Receptor gamma (RARg) (AID 2283009);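 for AC50: AC50 is for reporter induction above DMSO meaning RARg activation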
# In short: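 HepG2, RARg-GAL4 TRANS system, 24 h exposure; reporter mRNA by RT-PCR + CE fluorescence; increase over DMSO.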
# [2] = target: human RAR-related Orphan Receptor beta (RORb), RORB (gene 6096) (UniProt Q92753); assay: ATG_RORb_TRANS: Attagene TRANS-FACTORIAL HepG2 Assay for human RAR-related Orphan Receptor beta (RORb) (AID 2283010);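 for AC50: potency for increased reporter mRNA meaning activation of RORb-Gal4 chimera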
# In short: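 In this TRANS-format test, human HepG2 cells express chimeric NR-Gal4 fusion proteins driving GAL4-UAS reporters. After 24 h dosing, reporter transcripts are measured by fluorescent RT-PCR/capillary electrophoresis, with DMSO as negative control.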
# [3] = target: human RAR-related Orphan Receptor gamma (RORg), RORC (gene 6097) (UniProt P51449); assay: ATG_RORg_TRANS: Attagene TRANS-FACTORIAL HepG2 Assay for human RAR-related Orphan Receptor gamma (RORg) (AID 2283011);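 for AC50: potency for induction of reporter transcripts above DMSO so activators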
# In short: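 Readout: reporter transcript induction (RT-PCR, fluorescent primer extension, capillary electrophoresis) after 24 h compound exposure of transiently transfected HepG2 cells carrying a RORg-Gal4 chimera and GAL4-UAS reporters; DMSO served as baseline, with increasing signal fitted.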
# [4] = target: Retinoic acid receptor RXR-alpha (Homo sapiens) (UniProt P19793); assay: ATG_RXRa_TRANS: Attagene TRANS-FACTORIAL HepG2 Assay for human Retinoid X Receptor alpha (RXRa) (AID 2283012)
# In short: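 Cells (HepG2) carried transiently transfected GAL4-responsive reporter units. Following a 24 h chemical incubation, reporter mRNA induction was read via RT-PCR fragment analysis; DMSO served as negative control and baseline.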
# [5] = target: human Retinoid X Receptor beta (RXRb), RXRB (gene 6257) (UniProt P28702); assay: ATG_RXRb_TRANS: Attagene TRANS-FACTORIAL HepG2 Assay for human Retinoid X Receptor beta (RXRb) (AID 2283013)
# In short: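 Multiplexed TRANS reporter assay in HepG2; 24 h dosing; reporter mRNA by RT-PCR/CE fluorescence; gain-of-signal relative to DMSO.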
# [6] = target: human Thyroid Receptor alpha (THRa1), THRA (gene 7067) (UniProt P10827); assay: ATG_THRa1_TRANS: Attagene TRANS-FACTORIAL HepG2 Assay for human Thyroid Receptor alpha (THRa1) (AID 2283014)
# In short: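 HepG2 cells transiently transfected with multiplexed GAL4-UAS reporter units for exogenous chimeric THRa1-Gal4; reporter mRNA measured 24 h after dosing by RT-PCR, 6-FAM labelling, HpaI digestion and capillary electrophoresis. Gain-of-signal fitted versus DMSO baseline.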
# [7] = target: human Vitamin D Receptor (VDR), VDR (gene 7421) (UniProt P11473); assay: ATG_VDR_TRANS: Attagene TRANS-FACTORIAL HepG2 Assay for human Vitamin D Receptor (VDR) (AID 2283022)
# In short: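 HepG2 cells were transiently transfected with multiple GAL4-UAS reporter units, so signal reflects exogenous chimeric receptor-Gal4 activity. After 24 h compound exposure, reporter mRNA was measured by RT-PCR, fluorescent labelling and capillary electrophoresis, fitted for gain of signal versus DMSO.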
smiles,measurement,setting,value
CC(C)CC(=O)CC(C)CC(C)C (configuration not stated),AC50,[1],inconclusive: 170 µM
same,outcome,[2],inactive
same,outcome,[3],inactive
same,outcome,[4],inactive
same,outcome,[5],inactive
same,AC50,[6],inconclusive: 100 µM
CCCCCCCCCCCCCCCC(=O)OC/C=C(C)/C=C/C=C(C)/C=C/C1=C(C)CCCC1(C)C,AC50,[1],inconclusive: 100 µM
same,outcome,[2],inactive
same,AC50,[3],inconclusive: 100 µM
same,AC50,[4],inconclusive: 100 µM
same,outcome,[5],inactive
same,AC50,[6],inconclusive: 100 µM
CCCCCC(C=O)=Cc1ccccc1,outcome,[1],inactive
same,AC50,[2],inconclusive: 100 µM
same,AC50,[3],inconclusive: 100 µM
same,outcome,[4],inactive
same,AC50,[5],active: 73.8 µM
CCc1ccc(O)c(OC)c1,AC50,[1],inconclusive: 183 µM
same,AC50,[2],inconclusive: 183 µM
same,AC50,[3],inconclusive: 100 µM
same,AC50,[4],inconclusive: 177 µM
same,outcome,[5],inactive
same,AC50,[6],inconclusive: 23.2 µM
O=c1c(O)c(-c2ccc(O)cc2)oc2cc(O)cc(O)c12,AC50,[1],inconclusive: 65.5 µM
same,outcome,[2],inactive
same,outcome,[3],inactive
same,AC50,[4],inconclusive: 0.0183 µM
same,AC50,[5],inconclusive: 31.5 µM
same,outcome,[6],inactive
Brc1cc(Br)c(Oc2c(Br)cc(Br)c(Br)c2Br)cc1Br,AC50,[1],inconclusive: 100 µM
same,AC50,[2],inconclusive: 100 µM
same,outcome,[3],inactive
same,outcome,[4],inactive
same,AC50,[5],inconclusive: 100 µM
same,AC50,[6],inconclusive: 100 µM
CCCCC(CC)COC(=O)c1ccc(N(C)C)cc1 (configuration not stated),AC50,[1],inconclusive: 145 µM
same,outcome,[2],inactive
same,AC50,[3],inconclusive: 100 µM
same,outcome,[4],inactive
same,AC50,[5],inconclusive: 100 µM
same,outcome,[6],inactive
Cc1oc(-c2ccccc2)nc1CCOc1cccc2c1ccn2CCC(=O)O,outcome,[1],inactive
same,AC50,[2],inconclusive: 2.06 µM
same,outcome,[3],inactive
same,AC50,[4],active: 44.9 µM
same,AC50,[5],active: 8.2 µM
same,AC50,[6],inconclusive: 57.3 µM
same,outcome,[7],inactive
O=C(O)C(F)(F)C(F)(F)C(F)(F)C(F)(F)C(=O)O,outcome,[1],inactive
same,outcome,[2],inactive
same,outcome,[3],inactive
same,outcome,[4],inactive
same,AC50,[5],inconclusive: 150 µM
same,AC50,[6],inconclusive: 150 µM
O=CC(F)(F)C(F)(F)C(F)(F)F,AC50,[1],inconclusive: 150 µM
same,outcome,[2],inactive
same,AC50,[3],inconclusive: 150 µM
same,outcome,[4],inactive
same,outcome,[5],inactive
Oc1ccc(Cl)cc1C1CCCC1,AC50,[1],inconclusive: 33.4 µM
same,AC50,[2],inconclusive: 58.2 µM
same,AC50,[3],inconclusive: 54.3 µM
same,AC50,[4],active: 17.6 µM
same,AC50,[5],active: 3.12 µM
same,outcome,[6],inactive
C[N+](C)(C)CCCNS(=O)(=O)C(F)(F)C(F)(F)C(F)(F)C(F)(F)C(F)(F)C(F)(F)C(F)(F)C(F)(F)F,outcome,[1],inactive
same,AC50,[2],inconclusive: 201 µM
same,AC50,[3],inconclusive: 150 µM
same,outcome,[4],inactive
same,AC50,[5],inconclusive: 150 µM
same,AC50,[6],inconclusive: 150 µM
Cn1cccc1,AC50,[1],inconclusive: 100 µM
same,outcome,[2],inactive
same,outcome,[3],inactive
same,outcome,[4],inactive
same,AC50,[6],inconclusive: 172 µM
same,AC50,[7],inconclusive: 100 µM
CC(C)=CCC/C(C)=C/COC=O,AC50,[1],inconclusive: 44.1 µM
same,AC50,[2],inconclusive: 100 µM
same,outcome,[3],inactive
same,outcome,[5],inactive
CO[Si](C)(CCC(F)(F)C(F)(F)C(F)(F)C(F)(F)C(F)(F)C(F)(F)F)OC,outcome,[1],inactive
same,AC50,[2],inconclusive: 50 µM
same,outcome,[3],inactive
same,outcome,[5],inactive
CC(C)OC(=O)c1ccccc1C(=O)OC(C)C,outcome,[1],inactive
same,outcome,[2],inactive
same,AC50,[3],inconclusive: 16.4 µM
same,outcome,[4],inactive
same,AC50,[5],active: 18.9 µM
same,AC50,[7],inconclusive: 23.5 µM
CCCCC(CC)COC(=O)CC(C(=O)OCC(CC)CCCC)S(=O)(=O)O (configuration not stated),outcome,[1],inactive
same,outcome,[2],inactive
same,outcome,[3],inactive
same,outcome,[4],inactive
same,outcome,[5],inactive
same,outcome,[7],inactive
CC(=O)OCC=C(C)C,AC50,[1],inconclusive: 70.5 µM
same,AC50,[2],inconclusive: 70.5 µM
same,AC50,[3],inconclusive: 70.5 µM
same,outcome,[5],inactive
same,outcome,[6],inactive
COc1cc(C(C)C)c2c(c1)S(=O)(=O)N(COc1cc(=O)n3cccc(OCCN4CCCCC4)c3n1)C2=O,outcome,[1],inactive
same,AC50,[2],active: 3.53 µM
same,AC50,[3],active: 3.78 µM
same,AC50,[5],inconclusive: 7.5e-05 µM
C=C(C)C(=O)OCC1CCCO1 (configuration not stated),AC50,[1],inconclusive: 156 µM
same,AC50,[2],inconclusive: 182 µM
same,AC50,[3],inconclusive: 100 µM
same,outcome,[5],inactive

# Fetched one by one from the list above:
smiles,measurement,setting,value
CCCCC(CC)COC(=O)CC(C(=O)OCC(CC)CCCC)S(=O)(=O)O (configuration not stated),outcome,[3],inactive
CCCCCC(C=O)=Cc1ccccc1,AC50,[3],inconclusive: 100 µM
CCCCC(CC)COC(=O)CC(C(=O)OCC(CC)CCCC)S(=O)(=O)O (configuration not stated),outcome,[7],inactive
C[N+](C)(C)CCCNS(=O)(=O)C(F)(F)C(F)(F)C(F)(F)C(F)(F)C(F)(F)C(F)(F)C(F)(F)C(F)(F)F,AC50,[5],inconclusive: 150 µM
Oc1ccc(Cl)cc1C1CCCC1,AC50,[4],active: 17.6 µM
C=C(C)C(=O)OCC1CCCO1 (configuration not stated),AC50,[1],inconclusive: 156 µM
CCCCC(CC)COC(=O)c1ccc(N(C)C)cc1 (configuration not stated),AC50,[1],inconclusive: 145 µM
